# Experimental data reported in PubChem BioAssay AID445 (National Center for Advancing Translational Sciences (NCATS), 2006).
# Some of the results follow. These are further read-outs of the screen, such as a control signal, another cell line or another target. No call is given for them. The list favours compounds with an active or inconclusive main result. The note in brackets gives the kind of curve behind each potency; many fits are weak.
# Assay: IkB Signaling
# Details: ABC-DLBCL IkBa-CBG/CBR dual luciferase ratio (green luciferase fused to IkBa over red control in OCI-Ly3 lymphoma cells), 4 h; measured here: control luc red channel unless noted
# Method in brief: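 In this assay, an IκBα–CBG68 fusion accumulates when IKK-driven degradation is blocked; native CBR normalizes for cell number. OCI-Ly3 cells were treated 4 h with compound and doxycycline, then green and red light read after Chroma-Glo addition.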
row,Structure (SMILES),AC50
1,O=C(O)[C@@H]1[C@H](C(=O)O)[C@H]2C(=O)C=C[C@H]1N2Cc1ccccc1,"3.98 µM [rising, partial curve] [measured here: IkB-luc green channel]"
2,CCOC(=O)c1cnn(-c2sc(C(=O)OCC)c(C)c2C(=O)OCC)c1N,"2.51 µM [falling, full curve, poor fit]"
3,Cc1ccccc1CN1C(=O)c2ccccc2Sc2ccc(C(=O)N3CCOCC3)cc21,"20 µM [falling, partial curve]"
4,Cc1ccc(N2C(=O)SC(N(CC(=O)O)c3cccc(C)c3)C2=O)cc1 (stereo not given),"2 µM [falling, full curve]"
5,Cc1cccc(-c2nc(-c3ccc4c(c3)[nH]c(=O)n4C)no2)c1,"2 µM [rising, full curve]"
6,CCCN(CCC)CCCNC(=O)c1cc2c(-c3ccc(Cl)cc3)nn(C)c2s1,"20 µM [falling, single point]"
7,CCc1cc(=O)oc2cc(C)c3c(-c4ccc(F)cc4)coc3c12,"6.31 µM [rising, partial curve, poor fit]"
8,Cc1cccc(NC(=O)CSc2nc3c(oc4ccccc43)c(=O)n2-c2ccccc2)c1C,"12.6 µM [falling, partial curve]"
9,COc1ccccc1OCC(O)Cn1c(=N)n(Cc2ccccc2)c2ccccc21 (stereo not given),"25.1 µM [falling, partial curve]"
10,Cc1ccc(S(=O)(=O)N2CCC(C(=O)Nc3cc(C)ccc3C)CC2)cc1,"39.8 µM [falling, single point]"
11,O=C(CC(c1cccs1)N1Cc2ccccc2C1=O)Nc1ccccc1F (stereo not given),"25.1 µM [falling, single point]"
12,COc1ccc(-c2nnc(SCC#N)o2)cc1,"25.1 µM [rising, partial curve]"
13,Cc1ccc(CSC2=Nc3ccccc3C3=NC(CCC(=O)NCCc4ccccc4)C(=O)N23)cc1 (stereo not given),"39.8 µM [falling, single point]"
14,COc1ccc(-c2nc(S(=O)(=O)c3ccc(Cl)cc3)c(N3CCCCCC3)o2)cc1,"10 µM [falling, partial curve]"
15,Cc1ccc(C(=O)NCCSc2c(C)[nH]c3ccccc23)cc1C,"15.8 µM [falling, partial curve]"
16,Nc1nc2nc(-c3ccc(Cl)cc3)cc(C(F)(F)F)n2n1,"5.01 µM [rising, partial curve]"
17,CC(=O)N1c2ccccc2C(=O)C1N1CCN(c2cccc(C)c2C)CC1 (stereo not given),"25.1 µM [falling, partial curve]"
18,Cc1ccc(NC(=O)CSc2nc3c(c(=O)[nH]2)CN(Cc2ccccc2)CC3)cc1Cl,"25.1 µM [falling, partial curve]"
19,COC(=O)c1c(NC(=O)C2c3ccccc3Oc3ccccc32)sc2c1CCC(C)C2 (stereo not given),"12.6 µM [falling, partial curve]"
20,CC(CNC(=O)c1sc2ncccc2c1-n1cccc1)c1ccccc1 (stereo not given),"31.6 µM [falling, single point]"

row,Structure (SMILES),AC50
1,CC1(C)CC(=O)c2cc(C(=O)Nc3ccc(Cl)cc3)c(=O)[nH]c2C1,"31.6 µM [rising, single point]"
2,CN1CC(=O)N(CC(=O)Nc2ccc(F)cc2)c2ccccc2C1=O,"12.6 µM [falling, partial curve]"
3,COc1ccc(C)cc1NC(=O)CSc1nc(=O)n(Cc2cccnc2)c2c1CCC2,"1.26 µM [falling, full curve]"
4,O=C(C1CCCN(S(=O)(=O)c2cccc3nonc23)C1)N1CCN(c2ccccc2F)CC1 (stereo not given),"12.6 µM [falling, partial curve]"
5,O=C(CCn1c(=O)c2cccn2c2ccc(F)cc21)NCCc1ccc(Cl)cc1,"20 µM [falling, single point]"
6,Clc1ccc(-c2ccc(CNCCSc3nnnn3-c3ccccc3)o2)cc1,"20 µM [falling, partial curve]"
7,CCN1CCN(c2oc(-c3ccc(COc4ccc(OC)cc4)o3)nc2C#N)CC1,"0.398 µM [falling, partial curve, poor fit]"
8,COc1cc(OC)cc(C(=O)NCCn2ccc3ccccc32)c1,"20 µM [falling, partial curve]"
9,CCN(CC)S(=O)(=O)c1nnc(NC(=O)COc2ccccc2)s1,"3.16 µM [rising, partial curve]"
10,COc1ccc(C2(CNC(=O)C(=O)Nc3ccc(C)c(Cl)c3)CCCC2)cc1OC,"1.58 µM [rising, partial curve]"
11,COc1ccc(OC)c(C(=O)CN2C(=O)N(c3cc(C)cc(C)c3)S(=O)(=O)c3ccccc32)c1,"5.01 µM [rising, single point]"
12,O=C1c2ccccc2C(=O)N1c1nc(-c2cccs2)cs1,"3.16 µM [falling, partial curve]"
13,Cc1ccc(Cl)cc1-n1c(=O)c2sc3ccccc3c2n(CC(=O)NC2CCCC2)c1=O,"39.8 µM [falling, single point]"
14,CC(C)c1ccc(S(=O)(=O)N2CCN(CC(=O)Nc3ccc4c(c3)OCO4)CC2)cc1,"15.8 µM [falling, partial curve]"
15,COc1ccc(CC(=O)Nc2c(C(=O)N3CCN(c4ccccc4F)CC3)oc3ccccc23)cc1OC,"15.8 µM [falling, partial curve]"
16,O=C1C2=C(Nc3ccccc3SC2c2ccc(C(F)(F)F)cc2)c2ccccc21 (stereo not given),"7.94 µM [falling, partial curve]"
17,Cc1nc(N2CCN(C(=O)c3ccco3)CC2)c2c3c(sc2n1)CCC3,"20 µM [falling, partial curve]"
18,COc1ccc(NC(=O)c2c(NC(=O)c3cccc(C)c3)sc3c2CCC3)cc1,"12.6 µM [falling, partial curve, poor fit]"
19,COc1cccc(CNC(=O)c2ccc3oc(=O)n(Cc4ccccc4)c3c2)c1,"12.6 µM [falling, partial curve]"
20,COCCNC(=O)c1ccc2c(c1)NC(=O)C(CS(=O)(=O)Cc1ccc(F)cc1Cl)N2 (stereo not given),"39.8 µM [falling, partial curve]"

# Single entries from the list.
# `COc1ccc(OC)c(C(=O)CN2C(=O)N(c3cc(C)cc(C)c3)S(=O)(=O)c3ccccc32)c1` – AC50: 5.01 µM [rising, single point]
# `Cc1ccc(Cl)cc1-n1c(=O)c2sc3ccccc3c2n(CC(=O)NC2CCCC2)c1=O` – AC50: 39.8 µM [falling, single point]
